Common to all, as to assay: co-IP; HEK293T cells co-transfected with both partners; lysis in 0.5% Triton X-100, 20 mM Tris-HCl pH 7.5, 150 mM NaCl, 10% glycerol, 1 mM EDTA; anti-Flag agarose or anti-HA magnetic beads 4 h at 4°C; washes with 300 mM NaCl; immunoblotting
(A western blot detects proteins with antibodies after separation by electrophoresis.)

Chains of the proteins cited; added tags and fusions are not shown.
UniProt P51617: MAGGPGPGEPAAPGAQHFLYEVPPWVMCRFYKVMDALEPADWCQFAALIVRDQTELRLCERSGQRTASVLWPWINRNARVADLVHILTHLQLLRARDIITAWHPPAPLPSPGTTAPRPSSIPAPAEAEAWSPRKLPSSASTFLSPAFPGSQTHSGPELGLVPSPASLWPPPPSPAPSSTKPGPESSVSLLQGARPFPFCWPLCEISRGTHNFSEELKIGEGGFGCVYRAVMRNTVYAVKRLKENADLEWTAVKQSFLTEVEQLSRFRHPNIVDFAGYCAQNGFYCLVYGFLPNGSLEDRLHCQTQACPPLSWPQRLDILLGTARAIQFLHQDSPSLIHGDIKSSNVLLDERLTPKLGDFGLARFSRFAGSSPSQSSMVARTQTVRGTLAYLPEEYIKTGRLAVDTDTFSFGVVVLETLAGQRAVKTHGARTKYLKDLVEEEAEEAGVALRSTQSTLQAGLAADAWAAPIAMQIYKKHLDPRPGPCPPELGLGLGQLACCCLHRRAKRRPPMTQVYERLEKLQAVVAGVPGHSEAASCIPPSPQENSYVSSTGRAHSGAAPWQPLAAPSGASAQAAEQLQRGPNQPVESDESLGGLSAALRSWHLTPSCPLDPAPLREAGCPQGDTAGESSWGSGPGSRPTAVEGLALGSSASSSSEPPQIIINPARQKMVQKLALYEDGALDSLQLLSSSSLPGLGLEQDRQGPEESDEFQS

Assay [1] has as its target T1, TRAF6-C (C-terminal TRAF domain; residues 262–522) (UniProt Q9Y4K3).
T1 sequence: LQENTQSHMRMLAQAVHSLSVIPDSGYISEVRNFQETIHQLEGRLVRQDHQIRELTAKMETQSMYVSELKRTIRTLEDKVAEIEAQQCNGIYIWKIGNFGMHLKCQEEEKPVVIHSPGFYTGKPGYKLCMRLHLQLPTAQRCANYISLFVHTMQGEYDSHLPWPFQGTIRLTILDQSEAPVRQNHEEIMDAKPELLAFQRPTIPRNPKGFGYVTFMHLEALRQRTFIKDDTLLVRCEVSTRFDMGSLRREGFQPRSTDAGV

The target of assay [2] is T2, TRAF2 (full length, overexpressed) (UniProt Q12933).
T2 sequence: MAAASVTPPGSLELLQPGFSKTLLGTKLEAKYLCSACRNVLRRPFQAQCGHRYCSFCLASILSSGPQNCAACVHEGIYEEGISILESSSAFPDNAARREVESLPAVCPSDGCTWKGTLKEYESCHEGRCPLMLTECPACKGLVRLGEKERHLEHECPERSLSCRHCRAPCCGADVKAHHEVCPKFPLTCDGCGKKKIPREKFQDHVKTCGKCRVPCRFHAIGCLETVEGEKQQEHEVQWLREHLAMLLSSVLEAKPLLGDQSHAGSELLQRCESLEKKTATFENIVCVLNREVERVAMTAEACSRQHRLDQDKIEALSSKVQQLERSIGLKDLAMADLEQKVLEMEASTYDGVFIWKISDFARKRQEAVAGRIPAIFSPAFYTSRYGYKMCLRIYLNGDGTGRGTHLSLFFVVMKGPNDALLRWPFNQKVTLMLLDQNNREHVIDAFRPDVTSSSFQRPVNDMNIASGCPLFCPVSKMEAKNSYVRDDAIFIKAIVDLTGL

Assay [3] deals with T3, TRADD (overexpressed) (UniProt Q15628).
T3 sequence: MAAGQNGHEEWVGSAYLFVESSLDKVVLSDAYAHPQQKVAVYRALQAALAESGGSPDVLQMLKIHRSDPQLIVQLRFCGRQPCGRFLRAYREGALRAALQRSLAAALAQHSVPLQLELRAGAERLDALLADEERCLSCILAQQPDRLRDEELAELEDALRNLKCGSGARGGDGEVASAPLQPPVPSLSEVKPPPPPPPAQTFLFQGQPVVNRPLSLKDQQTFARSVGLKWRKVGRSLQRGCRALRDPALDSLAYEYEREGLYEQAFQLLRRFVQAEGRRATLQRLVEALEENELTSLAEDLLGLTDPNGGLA

These are yes or no findings as the source states them, for the method shown. Binding seen in cells or lysates may run through a third protein. Some entries that bind do so weakly or less than the wild type.

For the molecule “IRAK1 (overexpressed) (from UniProt P51617 1-712)”, in assay [1], the binding result was “binds”.

B1: KIZ-N (residues 1–220) (domain or fragment, UniProt Q2M2Z5 1-220)
chain: MSRTLASAVPLSSPDYYERLGQLQHGLRDSEKKRLDLEKKLYEYNQSDTCRVKLKYVKLKNYLKEICESEKKAHTRNQEYLKRFERVQAHVVHFTTNTEKLQKLKLEYETQIKKMLCSKDSLGLKEELTDEDREKVAVHEGINSGTAMSRGLYQPATIFMGRQMSAILSMRDFSTEHKSPQPTKNFSIPDPHSHRQTAQSSNVTDSCVVQTSNDTQCLNK
In the case of B1, the binding result in assay [2] is on record as “no binding”.

B2: KIZ-C (residues 441–674) (domain or fragment, UniProt Q2M2Z5 441-673)
chain: KESSTNAPTREPGQTPDSDVPRAQVGQHVATLKEHDNSVKEEATALLRKALTEECGRRSAIHSSESSCSLPSILNDNSGIKEAKPAVWLNSVPTREQEVSSGCGDKSKKENVAADIPITETEAYQLLKKATLQDNTNQTENRFQKTDASVSHLSGLNIGSGAFETKTANKIASEASFSSSEGSPLSRHENKKKPVINLKSNALWDESDDSNSEIEAALRPRNHNTDDSDDFYD
On to B2, for which the binding entry in assay [2] is listed as “no binding”.

B3: KIZ-Center (residues 221–440) (domain or fragment, UniProt Q2M2Z5 221-440)
chain: SDNIDGKASLQIGEKMPVTASVLSEEEQTHCLEIGSNTRHGKSNLSEGKKSAELNSPLRERLSPENRTTDLKCDSSSGSEGEILTREHIEVEEKRASPPVSPIPVSEYCESENKWSQEKHSPWEGVSDHLAHREPKSQKPFRKMQEEEEESWSTSSDLTISISEDDLILESPEPQPNPGGKMEGEDGIEALKLIHAEQERVALSTEKNCILQTLSSPDSE
Consider B3, for which, in assay [2], the binding result is listed as “binds”.

B4: TRAF2-C (C-terminal TRAF domain; residues 272–501) (domain or fragment, UniProt Q12933 272-501)
chain: CESLEKKTATFENIVCVLNREVERVAMTAEACSRQHRLDQDKIEALSSKVQQLERSIGLKDLAMADLEQKVLEMEASTYDGVFIWKISDFARKRQEAVAGRIPAIFSPAFYTSRYGYKMCLRIYLNGDGTGRGTHLSLFFVVMKGPNDALLRWPFNQKVTLMLLDQNNREHVIDAFRPDVTSSSFQRPVNDMNIASGCPLFCPVSKMEAKNSYVRDDAIFIKAIVDLTGL
On to B4, for which the binding entry in assay [3] is listed as “binds”.
